According to US20130323171A1, “RADIOLABELED BBN ANALOGS FOR PET IMAGING OF GASTRIN-RELEASING PEPTIDE RECEPTORS” (priority 2012, published 2013):
The match of structure and compound is tentative.

Protein sequences, listed by entry. Tags and fused reporters are not part of them.
UniProt P30550, whole entry: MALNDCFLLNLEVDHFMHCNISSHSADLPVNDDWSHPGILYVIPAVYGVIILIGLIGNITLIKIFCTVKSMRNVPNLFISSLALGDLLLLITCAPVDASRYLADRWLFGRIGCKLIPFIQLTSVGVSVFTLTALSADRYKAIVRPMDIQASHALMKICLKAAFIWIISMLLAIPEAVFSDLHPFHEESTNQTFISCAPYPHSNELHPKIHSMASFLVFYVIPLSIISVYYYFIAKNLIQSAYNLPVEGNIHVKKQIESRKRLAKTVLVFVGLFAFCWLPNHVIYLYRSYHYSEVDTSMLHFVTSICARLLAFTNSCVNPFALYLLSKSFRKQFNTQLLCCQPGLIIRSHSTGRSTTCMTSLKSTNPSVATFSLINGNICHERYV

Target: GRPR (Homo sapiens, UniProt P30550)
Assay: Cell-binding assay: inhibition of ^125I-[Tyr4]BBN binding on PC3 cells
Details: read-out: IC50 (inhibition of GRPR-binding of ^125I-[Tyr4]BBN), 0.06 nM radioligand, 37° C., 1 h, n=4, mean±SD
Description: The cell-binding assay was performed similarly as previously reported (18, 35). Briefly, the PC3 cells (3×10^4) were incubated with 0.06 nM ^125I-[Tyr4]BBN and varying concentrations of peptides in the binding buffer (RPMI 1640+2 mg/mL BSA+5.2 mg/mL HEPES) at 37° C. for 1 h. The cell-bound, residual radioactivity after washing was determined by gamma counting. The IC50 values, the concentration of competitor required to inhibit 50% of the radioligand binding, were determined by non-linear regression using GraphPad Prism (GraphPad Software, Inc.). The experiments were performed in quadruplicate.
All of these peptides inhibited the GRPR-binding of ^125I-[Tyr4]BBN on the PC3 cells in a concentration-dependent manner. The IC50 values for RM1, NODAGA-RM1, AMBA and NODAGA-AMBA were 0.25±0.04, 4.6±1.0, 0.17±0.07 and 1.9±0.50 nM (n=4), respectively.

**Q.** How did the IC50 turn out when `CC(C)C[C@H](NC(=O)C[C@H](O)[C@H](CC(C)C)NC(=O)[C@H](Cc1c[nH]cn1)NC(=O)CNC(=O)[C@@H](NC(=O)[C@H](C)NC(=O)[C@H](Cc1c[nH]c2ccccc12)NC(=O)[C@H](CCC(N)=O)NC(=O)[C@@H](Cc1ccccc1)NC(=O)c1ccc(NC(=O)CNC(=O)CCC(C(=O)O)N2CCN(CC(=O)O)CCN(CC(=O)O)CC2)cc1)C(C)C)C(N)=O` (stereo partly shown) was run?
**A.** 4.6 nM
